From the supplement of paper PMC10849652
The list shows a part of the results. Residues, ends and D or L forms follow the SMILES beside them. *: point of attachment. Cbz = O=C(OCc1ccccc1)*

By UniProt entry, the sequences of proteins in these tests, tags left out. Where a name states a change or a piece, a line headed by the entry shows the natural chain unless it says otherwise.
UniProt Q9Y2G3: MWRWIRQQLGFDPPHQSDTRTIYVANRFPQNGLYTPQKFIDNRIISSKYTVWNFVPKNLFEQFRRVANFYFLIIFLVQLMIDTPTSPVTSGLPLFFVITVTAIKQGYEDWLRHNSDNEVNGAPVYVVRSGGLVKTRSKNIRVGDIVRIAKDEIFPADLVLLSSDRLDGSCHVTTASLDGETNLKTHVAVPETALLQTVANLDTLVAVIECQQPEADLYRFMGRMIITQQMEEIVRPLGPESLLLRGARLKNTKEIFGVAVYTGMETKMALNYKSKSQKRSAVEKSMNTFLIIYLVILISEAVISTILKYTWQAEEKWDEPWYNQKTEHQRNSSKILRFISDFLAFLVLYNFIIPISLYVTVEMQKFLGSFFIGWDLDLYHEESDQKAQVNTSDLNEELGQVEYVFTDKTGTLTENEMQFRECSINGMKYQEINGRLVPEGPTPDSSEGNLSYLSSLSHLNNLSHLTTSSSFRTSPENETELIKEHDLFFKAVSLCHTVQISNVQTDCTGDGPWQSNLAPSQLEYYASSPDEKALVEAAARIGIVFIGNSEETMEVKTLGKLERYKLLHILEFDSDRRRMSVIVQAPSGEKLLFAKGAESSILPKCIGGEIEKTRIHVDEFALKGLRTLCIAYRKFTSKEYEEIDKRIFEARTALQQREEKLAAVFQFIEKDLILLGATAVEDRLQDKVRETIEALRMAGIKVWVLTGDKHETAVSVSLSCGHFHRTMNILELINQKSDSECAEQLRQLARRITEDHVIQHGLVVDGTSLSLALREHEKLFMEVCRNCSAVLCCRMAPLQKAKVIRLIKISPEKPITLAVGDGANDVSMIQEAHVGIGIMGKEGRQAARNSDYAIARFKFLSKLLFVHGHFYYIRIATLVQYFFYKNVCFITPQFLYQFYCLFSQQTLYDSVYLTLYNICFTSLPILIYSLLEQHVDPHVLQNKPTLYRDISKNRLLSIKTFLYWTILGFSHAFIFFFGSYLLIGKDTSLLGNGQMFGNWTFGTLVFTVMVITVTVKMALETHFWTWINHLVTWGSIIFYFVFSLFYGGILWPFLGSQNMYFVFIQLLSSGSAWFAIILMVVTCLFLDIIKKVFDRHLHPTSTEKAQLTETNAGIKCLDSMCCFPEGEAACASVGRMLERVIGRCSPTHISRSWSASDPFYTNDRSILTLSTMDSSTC
UniProt Q9Y6H3: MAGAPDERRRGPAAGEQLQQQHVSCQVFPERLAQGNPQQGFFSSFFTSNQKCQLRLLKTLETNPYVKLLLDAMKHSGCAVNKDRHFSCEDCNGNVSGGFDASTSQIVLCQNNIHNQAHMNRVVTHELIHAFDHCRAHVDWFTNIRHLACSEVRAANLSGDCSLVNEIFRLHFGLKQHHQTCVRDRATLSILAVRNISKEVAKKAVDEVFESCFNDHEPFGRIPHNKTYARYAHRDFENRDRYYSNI
UniProt Q8IUR7, whole entry, looked up: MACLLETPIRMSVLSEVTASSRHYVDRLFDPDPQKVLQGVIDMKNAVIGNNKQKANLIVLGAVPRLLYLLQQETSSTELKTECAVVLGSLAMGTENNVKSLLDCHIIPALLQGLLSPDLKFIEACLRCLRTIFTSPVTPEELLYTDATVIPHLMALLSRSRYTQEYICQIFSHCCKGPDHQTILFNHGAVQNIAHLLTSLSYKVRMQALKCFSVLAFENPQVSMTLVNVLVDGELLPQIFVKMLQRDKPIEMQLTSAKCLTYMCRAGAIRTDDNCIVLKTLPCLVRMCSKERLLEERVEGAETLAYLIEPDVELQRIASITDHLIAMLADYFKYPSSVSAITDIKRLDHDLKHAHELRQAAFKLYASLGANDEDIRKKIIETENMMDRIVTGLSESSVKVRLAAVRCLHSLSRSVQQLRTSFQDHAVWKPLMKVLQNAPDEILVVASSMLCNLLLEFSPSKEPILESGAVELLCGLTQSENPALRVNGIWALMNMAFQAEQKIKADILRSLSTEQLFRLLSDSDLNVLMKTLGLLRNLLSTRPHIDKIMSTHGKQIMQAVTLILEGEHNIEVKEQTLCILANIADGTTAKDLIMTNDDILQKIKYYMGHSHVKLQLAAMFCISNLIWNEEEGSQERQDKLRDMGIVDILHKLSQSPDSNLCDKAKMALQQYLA
UniProt P40616: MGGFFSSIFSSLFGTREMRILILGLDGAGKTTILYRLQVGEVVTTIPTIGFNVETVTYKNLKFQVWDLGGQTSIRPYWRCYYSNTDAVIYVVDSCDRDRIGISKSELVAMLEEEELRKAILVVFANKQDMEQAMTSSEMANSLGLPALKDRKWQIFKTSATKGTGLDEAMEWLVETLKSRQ
UniProt P23634: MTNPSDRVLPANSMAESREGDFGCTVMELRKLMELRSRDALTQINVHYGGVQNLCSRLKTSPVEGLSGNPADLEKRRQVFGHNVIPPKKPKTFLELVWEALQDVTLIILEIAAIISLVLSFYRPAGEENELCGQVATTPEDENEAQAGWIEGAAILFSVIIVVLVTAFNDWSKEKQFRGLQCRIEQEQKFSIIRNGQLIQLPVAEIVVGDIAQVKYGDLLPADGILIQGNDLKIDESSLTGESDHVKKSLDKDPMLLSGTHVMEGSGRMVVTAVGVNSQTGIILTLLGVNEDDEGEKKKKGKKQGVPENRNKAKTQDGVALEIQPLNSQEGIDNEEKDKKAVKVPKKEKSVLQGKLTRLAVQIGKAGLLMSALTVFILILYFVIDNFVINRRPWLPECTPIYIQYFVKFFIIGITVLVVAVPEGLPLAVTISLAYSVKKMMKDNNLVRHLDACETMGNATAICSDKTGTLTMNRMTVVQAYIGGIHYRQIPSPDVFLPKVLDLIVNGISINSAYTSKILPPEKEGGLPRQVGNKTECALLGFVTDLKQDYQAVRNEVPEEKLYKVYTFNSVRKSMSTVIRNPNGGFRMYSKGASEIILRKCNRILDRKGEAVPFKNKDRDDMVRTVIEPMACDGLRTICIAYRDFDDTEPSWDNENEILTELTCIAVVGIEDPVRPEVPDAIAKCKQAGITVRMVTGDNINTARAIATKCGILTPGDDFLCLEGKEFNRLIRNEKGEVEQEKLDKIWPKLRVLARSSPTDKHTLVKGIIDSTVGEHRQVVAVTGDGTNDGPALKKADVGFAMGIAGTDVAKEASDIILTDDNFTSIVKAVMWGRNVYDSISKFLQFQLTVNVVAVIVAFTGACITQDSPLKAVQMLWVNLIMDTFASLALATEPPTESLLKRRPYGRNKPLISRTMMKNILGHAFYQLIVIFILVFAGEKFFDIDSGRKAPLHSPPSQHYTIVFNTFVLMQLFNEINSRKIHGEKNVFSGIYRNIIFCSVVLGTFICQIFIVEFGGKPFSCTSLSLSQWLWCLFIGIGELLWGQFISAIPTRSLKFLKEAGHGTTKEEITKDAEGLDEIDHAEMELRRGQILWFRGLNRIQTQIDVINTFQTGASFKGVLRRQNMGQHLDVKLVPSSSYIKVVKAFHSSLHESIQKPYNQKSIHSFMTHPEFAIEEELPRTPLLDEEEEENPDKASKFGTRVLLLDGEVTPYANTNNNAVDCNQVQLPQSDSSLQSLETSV
UniProt Q93050, whole entry, looked up: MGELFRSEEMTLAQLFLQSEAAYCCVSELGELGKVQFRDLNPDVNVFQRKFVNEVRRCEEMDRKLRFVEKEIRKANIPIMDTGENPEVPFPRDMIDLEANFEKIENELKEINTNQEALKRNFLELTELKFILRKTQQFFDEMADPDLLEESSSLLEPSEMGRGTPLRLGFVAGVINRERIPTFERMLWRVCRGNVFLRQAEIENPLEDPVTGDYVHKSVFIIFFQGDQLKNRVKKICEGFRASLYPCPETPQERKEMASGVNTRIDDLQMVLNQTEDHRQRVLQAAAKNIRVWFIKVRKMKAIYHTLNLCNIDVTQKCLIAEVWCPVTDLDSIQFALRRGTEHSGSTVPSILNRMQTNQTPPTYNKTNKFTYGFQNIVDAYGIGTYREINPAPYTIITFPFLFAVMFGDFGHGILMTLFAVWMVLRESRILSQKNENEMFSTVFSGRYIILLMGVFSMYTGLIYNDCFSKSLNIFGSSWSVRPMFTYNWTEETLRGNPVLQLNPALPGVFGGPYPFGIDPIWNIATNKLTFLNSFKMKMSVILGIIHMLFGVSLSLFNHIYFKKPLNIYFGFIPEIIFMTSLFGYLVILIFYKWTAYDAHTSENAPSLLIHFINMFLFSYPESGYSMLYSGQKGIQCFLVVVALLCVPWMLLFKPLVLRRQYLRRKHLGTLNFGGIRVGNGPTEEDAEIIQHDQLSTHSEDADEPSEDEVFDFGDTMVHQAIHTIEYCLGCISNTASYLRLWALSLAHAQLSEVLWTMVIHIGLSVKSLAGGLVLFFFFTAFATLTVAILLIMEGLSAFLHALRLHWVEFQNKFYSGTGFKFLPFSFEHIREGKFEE
UniProt P21283, whole entry, looked up: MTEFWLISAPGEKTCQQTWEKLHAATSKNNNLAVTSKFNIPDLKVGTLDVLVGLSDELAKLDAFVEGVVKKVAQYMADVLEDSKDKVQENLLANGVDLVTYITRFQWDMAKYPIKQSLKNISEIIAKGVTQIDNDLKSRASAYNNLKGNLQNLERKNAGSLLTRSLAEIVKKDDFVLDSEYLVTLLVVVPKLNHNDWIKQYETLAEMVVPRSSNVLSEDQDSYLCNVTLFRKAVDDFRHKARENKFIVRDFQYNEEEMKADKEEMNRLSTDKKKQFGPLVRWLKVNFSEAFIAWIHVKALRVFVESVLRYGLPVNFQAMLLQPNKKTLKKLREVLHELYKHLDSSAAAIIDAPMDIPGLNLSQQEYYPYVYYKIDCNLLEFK
UniProt O94817, whole entry, looked up: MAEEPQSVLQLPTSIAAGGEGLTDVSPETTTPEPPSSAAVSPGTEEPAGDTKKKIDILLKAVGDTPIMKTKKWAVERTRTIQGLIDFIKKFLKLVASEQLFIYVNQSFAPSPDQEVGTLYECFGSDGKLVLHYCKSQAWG

Key:
Experiment in all cases: log2 fold change, soluble protein after heating vs DMSO (PISA); higher = thermal stabilisation; K562 cells, 10 uM, 30 min; active = over 0.2 and 3.5 SD of the protein, either way, in both replicates (recomputed)
[1] = compound: C#Cc1cccc(Nc2ncnc3cc(OCCOC)c(OCCOC)cc23)c1 [erlotinib]
In short: (§1)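 Soluble protein was quantified by TMTpro 16plex LC-MS/MS after channel sums were equalised. It was obtained as the supernatant after 21,000xg for 90 min from pooled aliquots of K562 cells (2×10^6 cells/mL, 10 μM compound, 30 min) heated for 3 min across 48°C-58°C and extracted in PBS with 0.5% NP-40 at 4°C. Thermal stability values are relative to control samples and come from duplicates. They are given as log2 fold changes.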

[2] = compound: C/C(=N\NC(=O)C1=CC(=CC=C1)S(=O)(=O)N2CCOCC2)/C3=C(C=CC(=C3)Cl)O
In short: as §1

[3] = compound: C1=CC(=C(C=C1Cl)C2=NC3=NC=CN=C3C(=N2)NC4=CC=NC=C4)F
In short: as §1

[4] = compound: C1=CC(=CC=C1C2=NC3=C(N2)C=C(C=C3)C(=O)N)OC4=CC=C(C=C4)Cl
In short: as §1

[5] = compound: C1=CC2=C(C=CC(=C2)/C=C\3/C(=O)NC(=NCC4=CC=CS4)S3)N=C1
In short: as §1

[6] = compound: C1=CC2=NC=CN=C2C=C1/C=C/3\C(=O)NC(=O)S3
In short: as §1

[7] = compound: C1=CC=C(C=C1)C2=NC(=C(N2)C3=CC=NC=C3)C4=CC(=C(C=C4)Cl)O
In short: as §1

[8] = compound: C1=CC=C2C(=C1)C3=NNC4=CC=CC(=C43)C2=O
In short: as §1

[9] = compound: C1CCN(C1)C(=O)NC2=CC=CC(=C2)NC3=NC=C(C(=N3)NCCC4=CN=CN4)Br
In short: as §1

[10] = compound: C1CN(CCC1(CC2=CC=C(C=C2)Cl)N)C3=NC=NC4=C3C=CN4
In short: as §1

[11] = compound: C1COCCN1CCN2C3=CC=CC=C3N=C2NC(=O)C4=CC(=CC=C4)[N+](=O)[O-] [IRAK-1-4 Inhibitor I]
In short: as §1

[12] = compound: C=CC(=O)N1CCC[C@@H](n2nc(-c3ccc(Oc4ccccc4)cc3)c3c(N)ncnc32)C1 [ibrutinib]
In short: as §1

[13] = compound: CC(=O)c1cnc2ccc(-c3cc(Cl)c(O)c(Cl)c3)nc2c1N[C@H]1CC[C@H](CN(C)C)CC1
In short: as §1

[14] = compound: CC(C)(C)Cn1c(N)nc2ccc(-c3[nH]c(C(C)(C)C)nc3-c3ccc(F)cc3)nc21 [ralimetinib]
In short: as §1

[15] = compound: CC(C)(O)CC(=O)NCCn1ccc2ncnc(Nc3ccc(Oc4cccc(C(F)(F)F)c4)c(Cl)c3)c21
In short: as §1

[16] = compound: CC(C)C1=C2N=C(C=C(N2N=C1)NCC3=CC=CC=C3)NCCCCCCN
In short: as §1

[17] = compound: CC(C)C[C@@H](C=O)NC(=O)[C@H](CC(C)C)NC(=O)[C@H](CC(C)C)NC(=O)OCc1ccccc1
In short: as §1

[18] = compound: CC(C)N(C[C@H]1O[C@@H](n2cnc3c(N)ncnc32)[C@H](O)[C@@H]1O)[C@H]1C[C@@H](CCc2nc3cc(C(C)(C)C)ccc3[nH]2)C1 [pinometostat]
In short: as §1

[19] = compound: CC1=C(C(CC(=O)N1)C2=CC=C(C=C2)C(F)(F)F)C(=O)NC3=C(C=C4C(=C3)C=NN4)F
In short: as §1

[20] = compound: CC1=C(C2=C(C=C1)C(=O)C3=CC=CC=C3N2CCCN)C
In short: as §1

Measured: log2 fold change

ATP11B (UniProt Q9Y2G3)
inactive: [1] -0.013 | [2] 0 | [3] 0.017 | [4] 0.002 | [5] -0.009 | [6] -0.003 | [7] -0.009 | [8] -0.04 | [9] 0.002 | [10] 0.06 | [11] 0.029 | [12] 0.035 | [13] 0.044 | [14] -0.029 | [15] 0.021 | [16] 0 | [17] 0.002 | [18] -0.018 | [19] -0.003 | [20] 0.018

ATP23 (UniProt Q9Y6H3)
inactive: [1] 0.021 | [2] -0.079 | [3] -0.017 | [4] 0.033 | [5] 0.051 | [6] 0.027 | [7] 0.009 | [8] 0.033 | [9] 0.007 | [10] -0.014 | [11] 0.091 | [12] -0.009 | [13] -0.004 | [14] -0.043 | [15] 0.02 | [16] -0.136 | [17] 0.025 | [18] -0.014 | [20] -0.01

ARMC8 (UniProt Q8IUR7)
inactive: [1] -0.079 | [2] -0.029 | [3] -0.029 | [4] 0.027 | [5] -0.047 | [6] 0.013 | [7] 0.051 | [8] -0.005 | [9] -0.002 | [10] -0.027 | [11] -0.025 | [12] -0.017 | [13] 0.036 | [14] 0.084 | [15] -0.011 | [16] -0.01 | [17] -0.093 | [18] -0.021 | [20] -0.07

ARL1 (UniProt P40616)
inactive: [1] 0.049 | [2] 0.063 | [3] 0.072 | [4] -0.091 | [5] 0.027 | [6] -0.028 | [7] 0.13 | [8] 0.084 | [9] -0.076 | [10] 0.055 | [11] 0.007 | [12] -0.031 | [13] -0.06 | [14] 0.029 | [15] -0.09 | [16] 0.044 | [17] -0.049 | [18] -0.039 | [20] 0.066

ATP2B4 (UniProt P23634)
inactive: [1] 0.056 | [2] 0.011 | [3] -0.131 | [4] 0.011 | [5] -0.061 | [6] 0.013 | [7] -0.014 | [8] -0.003 | [9] -0.002 | [10] 0.119 | [11] 0.051 | [12] 0.081 | [13] -0.018 | [14] -0.05 | [15] 0.036 | [16] 0.158 | [17] 0 | [18] -0.003 | [19] -0.006 | [20] 0.032

ATP6V0A1 (UniProt Q93050)
inactive: [6] 0.187 | [12] 0.047

ATP6V1C1 (UniProt P21283)
inactive: [1] -0.103 | [2] 0.02 | [3] -0.135 | [4] -0.021 | [5] -0.011 | [6] 0.046 | [7] -0.244 | [8] 0.045 | [9] -0.067 | [10] -0.227 | [11] -0.102 | [12] -0.041 | [13] -0.074 | [14] 0.036 | [15] 0.039 | [16] -0.008 | [17] 0.052 | [18] 0.068 | [20] -0.037

ATG12 (UniProt O94817)
inactive: [1] -0.032 | [2] 0.067 | [3] 0.07 | [4] 0.048 | [5] 0.056 | [6] 0.077 | [8] 0.007 | [9] -0.075 | [10] 0.004 | [11] 0.056 | [12] 0.015 | [13] -0.008 | [15] 0.002 | [16] -0.067 | [18] -0.043 | [19] 0.027 | [20] 0.058
